According to PMC10103708:
No constants are given. Whether binding was seen depends on the method and setting. Binding seen in cells or lysates may run through a third protein. Some results given as binding are weak or reduced against the parent protein; the word gives no strength.

Amino acid sequences for entries named in this document (tags omitted).
UniProt Q9NYB9: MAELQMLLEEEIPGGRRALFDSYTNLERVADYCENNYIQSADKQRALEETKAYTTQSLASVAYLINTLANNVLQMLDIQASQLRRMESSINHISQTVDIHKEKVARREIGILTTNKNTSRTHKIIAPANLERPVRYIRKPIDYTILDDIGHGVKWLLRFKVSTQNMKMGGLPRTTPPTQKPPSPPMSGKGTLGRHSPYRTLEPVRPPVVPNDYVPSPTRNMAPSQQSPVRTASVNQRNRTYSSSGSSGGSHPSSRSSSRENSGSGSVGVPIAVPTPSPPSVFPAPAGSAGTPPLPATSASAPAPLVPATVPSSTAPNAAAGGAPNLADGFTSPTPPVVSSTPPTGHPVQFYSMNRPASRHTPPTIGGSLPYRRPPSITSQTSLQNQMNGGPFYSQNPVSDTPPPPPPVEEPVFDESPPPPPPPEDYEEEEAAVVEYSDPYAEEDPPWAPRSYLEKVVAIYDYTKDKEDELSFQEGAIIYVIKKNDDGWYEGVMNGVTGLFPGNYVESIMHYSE
UniProt Q9Y6W5: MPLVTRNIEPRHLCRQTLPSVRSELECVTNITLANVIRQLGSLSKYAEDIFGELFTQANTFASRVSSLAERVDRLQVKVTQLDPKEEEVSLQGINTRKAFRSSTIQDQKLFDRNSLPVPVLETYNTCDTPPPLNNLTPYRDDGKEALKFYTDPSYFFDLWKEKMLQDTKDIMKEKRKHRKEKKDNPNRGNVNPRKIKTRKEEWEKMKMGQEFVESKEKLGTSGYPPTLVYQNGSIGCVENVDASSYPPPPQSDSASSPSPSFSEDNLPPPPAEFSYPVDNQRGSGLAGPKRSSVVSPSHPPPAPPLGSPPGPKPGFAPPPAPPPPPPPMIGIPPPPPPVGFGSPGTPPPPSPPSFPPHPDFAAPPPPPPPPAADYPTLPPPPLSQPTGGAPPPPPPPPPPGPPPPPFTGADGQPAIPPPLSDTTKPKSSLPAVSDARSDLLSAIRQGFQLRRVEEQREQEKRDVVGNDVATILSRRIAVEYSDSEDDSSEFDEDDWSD

Target: Abl-interactor 2 (ABI2), HA-tagged (UniProt Q9NYB9)
Test: co-IP; HA-ABI2 and GFP-WAVE2 co-transfected; cells cultured in normoxia or hypoxia (1% O2); legend: 293T, 4 h, IP with anti-HA beads, blot for GFP; text: DU145, 16 h, IP by the GFP tag, blot for HA; IP lysis buffer 20 mM Tris HCl pH 8, 137 mM NaCl, 10% glycerol, 1% Nonidet P-40, 2 mM EDTA; overnight at 4°C

binding: binds
Substance: WAVE2 (WASp-family verprolin homologous protein 2), GFP-tagged (from UniProt Q9Y6W5 1-498)
